# Assay results reported in patent US20170226211A1.
# Columns and labels:
# [1] = target: Cynomolgus/Rhesus CTLA-4 (cynomolgus/rhesus); test: ELISA, antibody coated, Cynomolgus/Rhesus CTLA-4 titrated
# [2] = target: Cynomolgus/Rhesus CTLA-4 (cynomolgus/rhesus); test: ELISA similar to Example 5
binder,measurement,setting,value
"anti-CTLA-4 antibody clone 2C8, human IgG1 (antibody, V domains shown) VH: QVQLQQSGPGLVKPSQTLSLTCAISGDTVSSNTAAWNWIRQSPSRGLEWLGRTYYRSKWYSDYGLSVKSRMTINADTSKNQVSLHLNSVTPEDTAVYYCAREGSGGTLIYWGQGTLVTVSS VL: DIQLTQSPSSVSASVGDRVTITCRATQGISSWLAWYQQKPGKAPKLLIYAASSLQSGVPSRFSGSGSGTEFTLTISSLQPEDFATYYCQQANTLPLFTFGPGTKVDIK",binding,[1],binds
same,binding,[2],binds

# No constants are given. Whether binding was seen depends on the method and setting. Binding calls can cover weak binding; strength is not graded here.
